Experimental data reported in article PMC10618295.
These are yes or no findings as the source states them, for the method shown. In cells and extracts the contact can be indirect. A result given as binding can be weak or reduced; the word gives no strength.

Sequences of proteins named here, by UniProt entry; tags and fusion partners are left off.
UniProt Q92831: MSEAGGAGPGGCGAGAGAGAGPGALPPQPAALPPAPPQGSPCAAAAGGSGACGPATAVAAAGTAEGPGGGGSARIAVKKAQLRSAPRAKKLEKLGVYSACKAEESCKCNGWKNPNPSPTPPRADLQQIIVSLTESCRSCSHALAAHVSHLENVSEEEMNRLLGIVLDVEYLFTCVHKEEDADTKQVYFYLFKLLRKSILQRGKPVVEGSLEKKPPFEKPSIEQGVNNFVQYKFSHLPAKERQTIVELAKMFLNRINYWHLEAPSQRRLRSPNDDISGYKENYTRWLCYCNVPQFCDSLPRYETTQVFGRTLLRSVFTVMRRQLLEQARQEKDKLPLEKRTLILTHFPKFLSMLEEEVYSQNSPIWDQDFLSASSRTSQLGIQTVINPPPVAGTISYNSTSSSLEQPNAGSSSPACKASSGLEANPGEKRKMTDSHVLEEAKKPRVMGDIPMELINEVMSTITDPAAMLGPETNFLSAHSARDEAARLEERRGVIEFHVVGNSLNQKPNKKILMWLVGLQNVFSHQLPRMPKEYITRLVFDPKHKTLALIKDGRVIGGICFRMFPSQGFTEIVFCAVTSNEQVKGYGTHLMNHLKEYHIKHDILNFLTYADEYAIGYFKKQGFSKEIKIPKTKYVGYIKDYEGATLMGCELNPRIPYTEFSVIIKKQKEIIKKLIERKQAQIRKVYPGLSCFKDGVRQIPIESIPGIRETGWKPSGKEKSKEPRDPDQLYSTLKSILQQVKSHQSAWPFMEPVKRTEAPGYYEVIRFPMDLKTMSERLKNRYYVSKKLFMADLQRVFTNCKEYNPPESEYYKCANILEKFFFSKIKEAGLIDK

What follows are substances tested against KRAS^WT (plasmid overexpressed in HEK293T cells) (UniProt P01116) (assay: co-IP; HEK293T cells transfected with KRAS^WT and Flag-E.V. or Flag-p300 (other acetyltransferase candidates in Supplementary Fig. 13); lysates precipitated with IgG or anti-KRAS antibody, blotted with anti-acetyl-lysine, anti-Flag and anti-KRAS).

Row | binding | Substance
1 | binds | Flag-p300 (from UniProt Q09472 1-2414) (enzyme)
2 | no binding | GCN5 (from UniProt Q92830 1-837) (enzyme)
3 | no binding | PCAF (from UniProt Q92831 1-832) (enzyme)
4 | no binding | TIP60 (from UniProt Q92993 1-513) (enzyme)
